Measured values as given in paper PMC12090772.
No constants are given. Whether binding was seen depends on the method and setting. Binding seen in cells or lysates may run through a third protein. Some entries that bind do so weakly or less than the wild type.

Sequences of proteins named here, by UniProt entry; tags and fusion partners are left off. A change or cut given only in a name is not applied to a line headed by its entry. A line that says so, or that is headed by a name, gives the form on record, which may keep a tag or linker.
Human TASOR, Flag-tagged (Q9UK61, form named): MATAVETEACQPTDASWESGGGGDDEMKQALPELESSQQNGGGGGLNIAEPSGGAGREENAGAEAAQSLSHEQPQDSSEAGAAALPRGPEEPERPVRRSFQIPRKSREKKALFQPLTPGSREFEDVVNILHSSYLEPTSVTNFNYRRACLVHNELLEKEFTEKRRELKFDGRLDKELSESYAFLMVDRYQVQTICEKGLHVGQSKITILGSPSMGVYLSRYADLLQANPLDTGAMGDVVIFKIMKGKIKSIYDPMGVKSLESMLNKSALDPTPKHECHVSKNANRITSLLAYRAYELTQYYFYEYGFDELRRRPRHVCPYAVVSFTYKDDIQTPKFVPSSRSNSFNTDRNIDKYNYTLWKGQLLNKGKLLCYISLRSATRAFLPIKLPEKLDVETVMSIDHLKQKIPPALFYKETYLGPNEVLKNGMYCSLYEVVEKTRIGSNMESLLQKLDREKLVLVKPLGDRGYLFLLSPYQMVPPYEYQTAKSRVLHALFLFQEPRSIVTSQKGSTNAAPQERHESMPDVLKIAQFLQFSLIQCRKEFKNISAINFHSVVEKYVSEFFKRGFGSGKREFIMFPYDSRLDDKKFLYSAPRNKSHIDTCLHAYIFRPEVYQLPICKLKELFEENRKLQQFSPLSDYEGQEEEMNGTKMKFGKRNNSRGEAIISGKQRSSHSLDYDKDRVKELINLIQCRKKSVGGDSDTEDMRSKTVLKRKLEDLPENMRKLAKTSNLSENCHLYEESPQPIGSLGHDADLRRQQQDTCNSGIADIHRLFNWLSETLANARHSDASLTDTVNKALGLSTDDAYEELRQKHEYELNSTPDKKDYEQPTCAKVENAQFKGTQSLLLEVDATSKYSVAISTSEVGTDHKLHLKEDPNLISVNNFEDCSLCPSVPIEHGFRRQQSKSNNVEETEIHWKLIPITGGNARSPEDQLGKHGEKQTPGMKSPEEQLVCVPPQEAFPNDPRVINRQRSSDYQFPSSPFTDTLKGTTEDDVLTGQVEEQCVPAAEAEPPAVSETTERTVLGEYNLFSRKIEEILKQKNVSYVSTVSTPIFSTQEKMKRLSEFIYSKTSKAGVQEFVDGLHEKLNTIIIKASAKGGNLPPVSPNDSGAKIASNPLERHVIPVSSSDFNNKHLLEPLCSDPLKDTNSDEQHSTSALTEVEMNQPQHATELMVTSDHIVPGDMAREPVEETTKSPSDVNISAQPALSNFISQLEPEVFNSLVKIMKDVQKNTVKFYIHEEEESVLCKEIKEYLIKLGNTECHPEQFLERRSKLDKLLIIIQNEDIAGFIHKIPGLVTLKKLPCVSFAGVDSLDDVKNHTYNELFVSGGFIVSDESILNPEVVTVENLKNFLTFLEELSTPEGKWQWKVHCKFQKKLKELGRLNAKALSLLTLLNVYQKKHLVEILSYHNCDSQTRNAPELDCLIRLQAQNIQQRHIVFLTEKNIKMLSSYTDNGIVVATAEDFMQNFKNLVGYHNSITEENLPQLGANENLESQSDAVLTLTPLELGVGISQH
UniProt Q9Y4B6: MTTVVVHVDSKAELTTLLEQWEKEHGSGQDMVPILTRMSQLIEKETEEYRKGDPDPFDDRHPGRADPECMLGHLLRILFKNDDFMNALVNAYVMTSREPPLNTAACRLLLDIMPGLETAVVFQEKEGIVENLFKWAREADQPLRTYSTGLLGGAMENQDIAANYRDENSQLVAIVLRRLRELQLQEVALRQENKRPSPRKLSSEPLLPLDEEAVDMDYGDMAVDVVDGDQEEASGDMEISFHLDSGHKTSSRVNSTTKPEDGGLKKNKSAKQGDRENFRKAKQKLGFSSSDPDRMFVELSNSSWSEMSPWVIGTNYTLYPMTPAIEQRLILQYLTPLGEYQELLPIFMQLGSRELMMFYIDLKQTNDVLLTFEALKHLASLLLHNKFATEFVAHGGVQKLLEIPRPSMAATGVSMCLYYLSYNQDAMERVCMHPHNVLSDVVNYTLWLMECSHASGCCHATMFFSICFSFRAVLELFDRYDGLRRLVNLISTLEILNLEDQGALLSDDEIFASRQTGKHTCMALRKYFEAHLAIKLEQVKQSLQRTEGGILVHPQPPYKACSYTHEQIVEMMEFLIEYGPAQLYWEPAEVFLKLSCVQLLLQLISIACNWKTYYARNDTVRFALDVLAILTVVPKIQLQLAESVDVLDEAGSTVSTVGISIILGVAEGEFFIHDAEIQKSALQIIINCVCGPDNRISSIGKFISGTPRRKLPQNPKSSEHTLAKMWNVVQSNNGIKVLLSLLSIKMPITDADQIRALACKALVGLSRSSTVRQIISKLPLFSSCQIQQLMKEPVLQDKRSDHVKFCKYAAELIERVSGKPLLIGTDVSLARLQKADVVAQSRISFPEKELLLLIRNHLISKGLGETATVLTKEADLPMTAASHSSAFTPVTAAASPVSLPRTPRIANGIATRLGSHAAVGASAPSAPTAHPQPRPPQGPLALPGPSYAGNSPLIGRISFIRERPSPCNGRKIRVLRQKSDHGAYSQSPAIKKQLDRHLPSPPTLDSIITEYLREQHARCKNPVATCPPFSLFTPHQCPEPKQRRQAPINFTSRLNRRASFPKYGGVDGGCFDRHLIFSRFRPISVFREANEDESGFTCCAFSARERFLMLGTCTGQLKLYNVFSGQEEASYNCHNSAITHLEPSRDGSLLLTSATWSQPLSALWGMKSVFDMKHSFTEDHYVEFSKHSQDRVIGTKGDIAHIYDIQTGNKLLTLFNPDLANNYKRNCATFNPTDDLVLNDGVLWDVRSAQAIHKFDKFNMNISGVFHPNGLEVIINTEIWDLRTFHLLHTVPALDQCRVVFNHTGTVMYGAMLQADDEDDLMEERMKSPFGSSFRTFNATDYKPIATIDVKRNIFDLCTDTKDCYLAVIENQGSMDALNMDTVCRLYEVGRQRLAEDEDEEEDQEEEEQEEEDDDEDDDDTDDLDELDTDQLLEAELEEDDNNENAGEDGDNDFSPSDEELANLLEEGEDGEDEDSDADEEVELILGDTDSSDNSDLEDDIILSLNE

How the values were obtained:
[1] = biological target: Vpr SIVagm.gri677 (SIVagm.Gri (strain gri677)) (UniProt Q02842); assay: co-IP; HA-Vpr constructs expressed in HeLa cells (with TASOR-Flag co-transfected where TASOR was looked for); anti-HA affinity gel beads, 4°C overnight, RIPA buffer; Western blot
[2] = biological target: Human TASOR, Flag-tagged (human) (UniProt Q9UK61); assay: co-IP; HA-Vpr or HA-Vpx overexpressed in OMK cells with human or owl monkey Flag-TASOR; anti-Flag immunoprecipitation; Western blot

Molecule | binding [1] | binding [2]
DCAF1 (human, endogenous in HeLa cells) (from UniProt Q9Y4B6 1-1507) | binds | 
Vpx HIV-2 Gh (protein, UniProt P18045 1-112) MTDPRERVPPGNSGEETIGEAFEWLDRTIEALNREAVNHLPRELIFQVWQRSWRYWHDDQGMSPSYTKYRYLCLMQKAVFIHFKRGCTCLGGGHGPGGWRSGPPPPPPPGLV |  | binds
